Not every detail of the peptide structures is certain; ends, links or a residue may be inferred. Bridge positions count the residues as written; N and C are the ends. Peptide text beside a SMILES is read from it.
Test system: L-Trp 2',3'-oxidase
Assay: Kinetics of dehydrogenation of substrates by purified L-Trp 2',3'-oxidase (appearance of dehydro product at 330 nm)
Type: biochemical, Chromobacterium violaceum
Settings: for Kcat/Km: substrate of L-Trp 2',3'-oxidase, in the presence of catalase
Experimental: Measurements of the specific activity of the enzyme as well as all the kinetic experiments in the steady state, were performed under the standard conditions defined below:
Substrate: 1 mMN-acetyl-L-tryptophanamide (NATA)
Buffer: 50 mM succinate, pH 5.5
by directly monitoring the appearance of the dehydro product at 330 nm (FIG. 3). The specific activity (As) of fraction Q1 is calculated on the basis of a molar extinction coefficient at 330 nm of 18.8 mM^-1.cm^-1 determined in the laboratory (against ε330 =19.89 mM^-1.cm^-1 in the literature; TAKAI et al. mentioned above). NATA, which represents the smallest peptide chain possible, is used as reference substrate for the enzymatic reaction. The specific activity of the preparation (As) is estimated at 39.5±3.1 units for NATA (an enzymatic unit represents a mole of product formed per second per mole of heme).
The dehydrogenation of NATA was monitored as a function of the pH (pH 3-5, 6-8) at a temperature of 30° C. in 50 mM succinate buffer, pH 5.6. The reaction products are analysed and purified by reversed-phase HPLC and then freeze-dried and analysed by mass spectrometry (desorption by chemical ionisation: DCI). ΔNATA is the only product of the enzymatic reaction which is characterised by HPLC (single peak, γmax 333 nm) and by mass spectrophotometry (MH^+ =244).
The procedure is as in Example 1.7).
All the reactions were performed in the presence of catalase. In each case, the kinetic constants (Kcat and Km) are calculated so as to evaluate the efficiency of the enzyme for each type of substrate.

Row | Compound | decrease of Kcat relative to the other peptides | Kcat/Km
1 | CC(C)C[C@H](NC(=O)[C@H](Cc1ccc(O)cc1)NC(=O)[C@@H]1CCCN1C(=O)[C@@H](NC(=O)[C@H](CC(=O)O)NC(=O)[C@@H]1CCCN1C(=O)[C@@H]1CSSC[C@H](NC(=O)[C@@H](NC(=O)[C@H](Cc2ccc(O)cc2)NC(=O)[C@H](Cc2ccc(O)cc2)NC(=O)[C@@H](NC(=O)[C@H](Cc2c[nH]c3ccccc23)NC(=O)[C@H](Cc2c[nH]cn2)NC(=O)[C@H](CCCCN)NC(=O)[C@H](CCCCN)NC(=O)[C@@H](N)CCCCN)C(C)C)[C@@H](C)O)C(=O)N1)[C@@H](C)O)C(=O)O [KKacoR 15] (H-KKKHWVYYTCCPDTPYL-OH; disulfide 10-11) | 10 factor | 7.10^3 M^-1.s^-1
2 | CC(C)C[C@H](NC(=O)CNC(=O)[C@H](Cc1ccc(O)cc1)NC(=O)[C@H](CO)NC(=O)[C@H](Cc1c[nH]c2ccccc12)NC(=O)[C@H](Cc1c[nH]cn1)NC(=O)[C@@H]1CCC(=O)N1)C(=O)N[C@@H](CCCNC(=N)N)C(=O)N1CCC[C@H]1C(=O)NCC(N)=O [LHRN] | – | 3.10^5 M^-1.s^-1
